Measured values from the supplement of paper PMC4604168 (melanoma cell lines).
This is one part of the list. Single values are uncertain, as repeats are few or missing.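 Cells were imaged in 1,536-well plates, and nuclei stained with an antibody against cleaved PARP were counted against all DNA-stained nuclei to give the apoptosis fraction. Screening doses were chosen to leave most cells alive, and resting and induced cleaved-PARP levels differ strongly between cell lines.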

Tests used:
Assay in all cases: cleaved PARP positive nuclei fraction relative to DMSO control; melanoma cells; higher = more apoptosis
Settings in all cases: library dose: low library concentration; 72 h
[1] = system: 501Mel
[2] = system: A101D
[3] = system: A2058
[4] = system: A375
[5] = system: C32
[6] = system: CBRC008 (line from a melanoma biopsy)
[7] = system: CBRC014 (line from a melanoma biopsy)
[8] = system: CBRC016 (line from a melanoma biopsy)
[9] = system: CBRC017 (line from a melanoma biopsy)
[10] = system: CBRC034 (line from a melanoma biopsy)
[11] = system: COLO792
[12] = system: COLO800
[13] = system: COLO829
[14] = system: G361
[15] = system: IPC-298
[16] = system: IST-MEL1
[17] = system: LB2518-MEL
[18] = system: LOXIMVI
[19] = system: MEL-HO

Structure (SMILES)	cleaved PARP positive nuclei fraction [1] [%]	cleaved PARP positive nuclei fraction [2] [%]	cleaved PARP positive nuclei fraction [3] [%]	cleaved PARP positive nuclei fraction [4] [%]	cleaved PARP positive nuclei fraction [5] [%]	cleaved PARP positive nuclei fraction [6] [%]	cleaved PARP positive nuclei fraction [7] [%]	cleaved PARP positive nuclei fraction [8] [%]	cleaved PARP positive nuclei fraction [9] [%]	cleaved PARP positive nuclei fraction [10] [%]	cleaved PARP positive nuclei fraction [11] [%]	cleaved PARP positive nuclei fraction [12] [%]	cleaved PARP positive nuclei fraction [13] [%]	cleaved PARP positive nuclei fraction [14] [%]	cleaved PARP positive nuclei fraction [15] [%]	cleaved PARP positive nuclei fraction [16] [%]	cleaved PARP positive nuclei fraction [17] [%]	cleaved PARP positive nuclei fraction [18] [%]	cleaved PARP positive nuclei fraction [19] [%]
COc1ccc(C2=N[C@@H](c3ccc(Cl)cc3)[C@@H](c3ccc(Cl)cc3)N2C(=O)N2CCNC(=O)C2)c(OC(C)C)c1 [Nutlin-3] + Nc1cccc2c1CN(C1CCC(=O)NC1=O)C2=O [lenalidomide] (first compound 0.1 µM, partner dose 1 µM)	131	287	70.3	85.3	171	117	95	121	139	152	94.4	143	86.9	147	41.2	97.9	119	83.1	117
CC(=O)O[C@@]12CO[C@@H]1C[C@H](O)[C@@]1(C)C(=O)[C@H](O)C3=C(C)[C@@H](OC(=O)[C@H](O)[C@@H](NC(=O)OC(C)(C)C)c4ccccc4)C[C@@](O)([C@@H](OC(=O)c4ccccc4)[C@H]21)C3(C)C [Docetaxel] + Nc1nc(F)nc2c1ncn2[C@@H]1O[C@H](CO)[C@@H](O)[C@@H]1O [fludarabine] (first compound 0.0001 µM, partner dose 0.2 µM)	11200	354	8690	5550	279	198	190	417	274	107	531	287	275	1100	215	389	327	302	630
CC1(C)CCC(c2ccc(Cl)cc2)=C(CN2CCN(c3ccc(C(=O)NS(=O)(=O)c4ccc(N[C@H](CCN5CCOCC5)CSc5ccccc5)c(S(=O)(=O)C(F)(F)F)c4)cc3)CC2)C1 + Cc1nc(Nc2ncc(C(=O)Nc3c(C)cccc3Cl)s2)cc(N2CCN(CCO)CC2)n1 [dasatanib] (first compound 0.4 µM, partner dose 0.004 µM)	85.2	193	117	266	113	371	635	1430	574	273	755	67.2	125	151	410	60	252	372	126
CC(=O)O[C@@]12CO[C@@H]1C[C@H](O)[C@@]1(C)C(=O)[C@H](O)C3=C(C)[C@@H](OC(=O)[C@H](O)[C@@H](NC(=O)OC(C)(C)C)c4ccccc4)C[C@@](O)([C@@H](OC(=O)c4ccccc4)[C@H]21)C3(C)C [Docetaxel] + OCc1c[nH]c2ccccc12 [Indole-3-carbinol] (first compound 0.0001 µM, partner dose 0.8 µM)	1090	234	2250	1870	414	336	170	399	214	236	304	167	185	656	496	189	168	144	329
NC(=O)c1ccc(N(C(N)=O)c2c(F)cccc2F)nc1-c1ccc(F)cc1F + NC1(c2ccc(-c3nc4ccn5c(=O)[nH]nc5c4cc3-c3ccccc3)cc2)CCC1 [MK2206] (first compound 0.4 µM, partner dose 0.4 µM)	99	414	20.4	79.6	81.3	103	78.1	64.1	105	36	201	216	29.4	220	81.9	147	133	187	62
Cn1cnc2c(F)c(Nc3ccc(Br)cc3Cl)c(C(=O)NOCCO)cc21 [selumetinib] + CCCS(=O)(=O)Nc1ccc(F)c(C(=O)c2c[nH]c3ncc(Cl)cc23)c1F [PLX4720] (first compound 0.015 µM, partner dose 0.08 µM)	261	119	109	362	89.8	118	238	83.4	130	149	101	248	45.8	121	92.1	64	148	47.1	180
Cn1cnc2c(F)c(Nc3ccc(Br)cc3Cl)c(C(=O)NOCCO)cc21 [selumetinib] + CN(c1ncccc1CNc1nc(Nc2ccc3c(c2)CC(=O)N3)ncc1C(F)(F)F)S(C)(=O)=O [PF562271] (first compound 0.015 µM, partner dose 0.08 µM)	337	101	186	138	120	75.9	98.9	239	126	41.9	106	91.1	101	202	92	34.9	485	98.4	86.7
C[C@]1(O)C[C@@H](c2nc(-c3ccc4ccc(-c5ccccc5)nc4c3)c3c(N)nccn32)C1 + C=C(c1ccc(C(=O)O)cc1)c1cc2c(cc1C)C(C)(C)CCC2(C)C [Bexarotene] (first compound 0.4 µM, partner dose 2 µM)	180	50.4	113	444	102	364	142	45.3	156	65.6	93.9	122	37.6	62.2	46.6	71.8	332	57	218
COc1ccc(C2=N[C@@H](c3ccc(Cl)cc3)[C@@H](c3ccc(Cl)cc3)N2C(=O)N2CCNC(=O)C2)c(OC(C)C)c1 [Nutlin-3] + CN(c1ncccc1CNc1nc(Nc2ccc3c(c2)CC(=O)N3)ncc1C(F)(F)F)S(C)(=O)=O [PF562271] (first compound 0.1 µM, partner dose 0.08 µM)	94.8	160	29.2	87.2	78.1	46.7	96.6	84.3	306	150	148	135	96.2	94.3	42.9	125	332	163	132
CS(=O)(=O)c1ccc(C(=O)Nc2ccc(Cl)c(-c3ccccn3)c2)c(Cl)c1 [vismodegib] + CC(=O)O[C@@]12CO[C@@H]1C[C@H](O)[C@@]1(C)C(=O)[C@H](O)C3=C(C)[C@@H](OC(=O)[C@H](O)[C@@H](NC(=O)OC(C)(C)C)c4ccccc4)C[C@@](O)([C@@H](OC(=O)c4ccccc4)[C@H]21)C3(C)C [Docetaxel] (first compound 1 µM, partner dose 0.0001 µM)	191	185	1450	569	415	622	126	616	231	67.1	438	45.2	242	566	182	173	128	24	95.8
Cn1sc(=O)n(Cc2ccccc2)c1=O + OCc1c[nH]c2ccccc12 [Indole-3-carbinol] (first compound 0.4 µM, partner dose 0.8 µM)	63.5	49.3	109	83.7	83.9	24	86.1	78.9	109	48.8	65.5	40.1	132	50.6	40.8	52.1	104	87.3	20.2
Cn1cnc2c(F)c(Nc3ccc(Br)cc3Cl)c(C(=O)NOCCO)cc21 [selumetinib] + Cn1c(=O)n(-c2ccc(C(C)(C)C#N)cc2)c2c3cc(-c4cnc5ccccc5c4)ccc3ncc21 [NVP-BEZ235] (first compound 0.015 µM, partner dose 0.004 µM)	374	108	78.9	304	93.7	52.3	79.7	108	163	258	162	105	147	183	259	34	168	58.9	86.6
COc1ccc(C2=N[C@@H](c3ccc(Cl)cc3)[C@@H](c3ccc(Cl)cc3)N2C(=O)N2CCNC(=O)C2)c(OC(C)C)c1 [Nutlin-3] + C[C@]1(c2nc3c(C(N)=O)cccc3[nH]2)CCCN1 [Veliparib] (first compound 0.1 µM, partner dose 1.4 µM)	298	153	103	374	85.5	241	118	174	104	135	86.2	120	136	37.9	129	90.4	127	154	77.2
CC(=O)O[C@@]12CO[C@@H]1C[C@H](O)[C@@]1(C)C(=O)[C@H](O)C3=C(C)[C@@H](OC(=O)[C@H](O)[C@@H](NC(=O)OC(C)(C)C)c4ccccc4)C[C@@](O)([C@@H](OC(=O)c4ccccc4)[C@H]21)C3(C)C [Docetaxel] + C=C(c1ccc(C(=O)O)cc1)c1cc2c(cc1C)C(C)(C)CCC2(C)C [Bexarotene] (first compound 0.0001 µM, partner dose 2 µM)	252	162	2160	2990	81.9	561	241	193	314	108	473	149	245	535	308	309	134	255	190
CCCCCCCCc1ccc(CCC(N)(CO)CO)cc1 [fingolimod] + COc1ccc(Cl)c(Nc2nc3ccccc3nc2NS(=O)(=O)c2cccc(NC(=O)C(C)(C)N)c2)c1 [XL147] (first compound 2 µM, partner dose 0.8 µM)	178	49.7	61.3	412	75.6	95.5	105	93.5	108	76.8	101	69.1	116	154	63.4	48.3	226	98.3	116
CS(=O)(=O)c1ccc(C(=O)Nc2ccc(Cl)c(-c3ccccn3)c2)c(Cl)c1 [vismodegib] + C=C(c1ccc(C(=O)O)cc1)c1cc2c(cc1C)C(C)(C)CCC2(C)C [Bexarotene] (first compound 1 µM, partner dose 2 µM)	109	116	123	51.5	125	73.3	84.7	146	125	158	83.7	43.7	48.5	57.2	41.5	193	55.6	79.3	110

Record cards (already shown). Order of values: cleaved PARP positive nuclei fraction [1] [%]	cleaved PARP positive nuclei fraction [2] [%]	cleaved PARP positive nuclei fraction [3] [%]	cleaved PARP positive nuclei fraction [4] [%]	cleaved PARP positive nuclei fraction [5] [%]	cleaved PARP positive nuclei fraction [6] [%]	cleaved PARP positive nuclei fraction [7] [%]	cleaved PARP positive nuclei fraction [8] [%]	cleaved PARP positive nuclei fraction [9] [%]	cleaved PARP positive nuclei fraction [10] [%]	cleaved PARP positive nuclei fraction [11] [%]	cleaved PARP positive nuclei fraction [12] [%]	cleaved PARP positive nuclei fraction [13] [%]	cleaved PARP positive nuclei fraction [14] [%]	cleaved PARP positive nuclei fraction [15] [%]	cleaved PARP positive nuclei fraction [16] [%]	cleaved PARP positive nuclei fraction [17] [%]	cleaved PARP positive nuclei fraction [18] [%]	cleaved PARP positive nuclei fraction [19] [%]
CC(=O)O[C@@]12CO[C@@H]1C[C@H](O)[C@@]1(C)C(=O)[C@H](O)C3=C(C)[C@@H](OC(=O)[C@H](O)[C@@H](NC(=O)OC(C)(C)C)c4ccccc4)C[C@@](O)([C@@H](OC(=O)c4ccccc4)[C@H]21)C3(C)C [Docetaxel] + Nc1nc(F)nc2c1ncn2[C@@H]1O[C@H](CO)[C@@H](O)[C@@H]1O [fludarabine] (first compound 0.0001 µM, partner dose 0.2 µM) is entered as 11200	354	8690	5550	279	198	190	417	274	107	531	287	275	1100	215	389	327	302	630
Cn1sc(=O)n(Cc2ccccc2)c1=O + OCc1c[nH]c2ccccc12 [Indole-3-carbinol] (first compound 0.4 µM, partner dose 0.8 µM) is entered as 63.5	49.3	109	83.7	83.9	24	86.1	78.9	109	48.8	65.5	40.1	132	50.6	40.8	52.1	104	87.3	20.2
